For one substance, binding results are on record in PMC6996922.

By UniProt entry, the sequences of proteins in these tests, tags left out.
UniProt Q9HAW4: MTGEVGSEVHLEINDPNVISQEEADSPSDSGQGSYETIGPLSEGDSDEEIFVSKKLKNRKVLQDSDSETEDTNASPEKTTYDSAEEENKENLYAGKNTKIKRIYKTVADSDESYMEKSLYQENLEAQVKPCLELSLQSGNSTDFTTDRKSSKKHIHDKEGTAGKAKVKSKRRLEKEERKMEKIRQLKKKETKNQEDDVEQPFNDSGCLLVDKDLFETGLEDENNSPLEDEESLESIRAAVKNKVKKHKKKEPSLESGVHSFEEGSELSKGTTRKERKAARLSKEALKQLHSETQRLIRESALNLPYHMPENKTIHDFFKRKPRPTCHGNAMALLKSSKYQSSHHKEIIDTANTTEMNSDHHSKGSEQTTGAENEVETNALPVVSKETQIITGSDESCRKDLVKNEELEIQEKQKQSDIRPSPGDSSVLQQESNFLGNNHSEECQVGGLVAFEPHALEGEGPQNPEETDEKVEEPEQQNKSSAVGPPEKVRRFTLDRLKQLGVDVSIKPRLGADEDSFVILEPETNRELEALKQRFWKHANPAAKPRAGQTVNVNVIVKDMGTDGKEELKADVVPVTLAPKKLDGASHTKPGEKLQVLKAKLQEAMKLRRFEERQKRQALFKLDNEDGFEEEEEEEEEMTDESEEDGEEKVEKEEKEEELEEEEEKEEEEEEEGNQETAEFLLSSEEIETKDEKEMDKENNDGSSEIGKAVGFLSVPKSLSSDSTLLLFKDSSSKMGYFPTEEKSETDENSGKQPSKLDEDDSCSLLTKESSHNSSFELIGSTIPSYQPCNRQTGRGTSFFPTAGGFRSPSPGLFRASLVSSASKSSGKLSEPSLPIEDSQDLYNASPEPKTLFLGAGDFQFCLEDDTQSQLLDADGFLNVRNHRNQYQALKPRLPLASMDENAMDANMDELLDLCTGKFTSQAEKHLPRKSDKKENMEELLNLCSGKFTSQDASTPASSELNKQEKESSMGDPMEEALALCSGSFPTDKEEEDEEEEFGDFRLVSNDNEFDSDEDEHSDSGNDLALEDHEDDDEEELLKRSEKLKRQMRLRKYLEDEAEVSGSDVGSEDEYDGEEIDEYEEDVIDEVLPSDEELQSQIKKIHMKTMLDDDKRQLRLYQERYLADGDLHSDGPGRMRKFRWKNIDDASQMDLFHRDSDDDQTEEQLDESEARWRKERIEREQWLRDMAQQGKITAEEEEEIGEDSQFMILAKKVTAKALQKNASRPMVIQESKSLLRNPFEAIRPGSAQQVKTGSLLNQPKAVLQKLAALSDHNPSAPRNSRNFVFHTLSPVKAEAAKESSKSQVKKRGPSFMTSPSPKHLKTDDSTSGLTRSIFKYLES

Results are given in words; binding and its absence hold for the method and conditions named. In cells and extracts the contact can be indirect. Some binding calls cover weakened binding; strength is not graded here.

Experiment [1] concerns the target T1, Chk1, endogenous (human (endogenous in 293T and HCT116)) (UniProt O14757).
T1 sequence: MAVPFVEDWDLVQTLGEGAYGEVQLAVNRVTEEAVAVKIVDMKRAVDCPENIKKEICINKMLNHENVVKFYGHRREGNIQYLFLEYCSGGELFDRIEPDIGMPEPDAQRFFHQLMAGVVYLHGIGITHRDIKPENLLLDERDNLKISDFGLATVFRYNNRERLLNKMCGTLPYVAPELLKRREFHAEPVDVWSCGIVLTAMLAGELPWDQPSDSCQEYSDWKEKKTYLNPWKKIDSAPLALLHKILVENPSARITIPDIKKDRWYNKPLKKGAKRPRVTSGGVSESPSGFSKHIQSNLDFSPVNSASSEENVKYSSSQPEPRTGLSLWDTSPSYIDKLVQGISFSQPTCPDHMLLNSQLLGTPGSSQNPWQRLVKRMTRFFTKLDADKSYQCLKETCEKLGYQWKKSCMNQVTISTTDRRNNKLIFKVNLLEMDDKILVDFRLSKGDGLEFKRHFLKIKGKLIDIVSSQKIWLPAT
In words: co-IP; endogenous proteins, HCT116 and HCT116-323 (Cdc7 promoter mutant) treated with 2 mM HU for 4 hr; pulled down with anti-Chk1 antibody; western blot with anti-Claspin and anti-Chk1. (Immunoblotting shows a protein as a band on a membrane.)

Experiment [2] concerns the target T1, Chk1, endogenous (human (endogenous in 293T and HCT116)). Kind of experiment: co-IP; endogenous proteins, 293T cells with siControl or siCdc7 for 48 hr, with or without 2 mM HU for 4 hr; CSK buffer with 0.1% Triton-X100; pulled down with anti-Chk1 antibody; western blot with anti-Claspin and anti-Chk1.

Regarding “Claspin, endogenous (from UniProt Q9HAW4 1-1339)”, the binding result in experiment [1] and in experiment [2] was “binds” throughout.
